This note sets out measurements from the odorant receptor screen of Mainland et al. (2015).

Common to all, as to assay: odorant receptor activation (CRE luciferase / Renilla) (fold of no-odor wells); higher = more activation
What all share (conditions): 100 µM

For test [1], the system named is OR2L8 clone 1515.
Test [2] concerns OR2M2 R220G/C235R clone 1494.
Test [3] concerns OR2M3 clone 1054.
In test [4] the test system is OR2M4 clone 1053.
Test [5] has as its system OR2M5 clone 1167.
The test system of test [6] is OR2M7 F35L/V78A/C178F clone 1378.
The test system of test [7] is OR2M7 F35L/V78A/C178F/D191N clone 1401.
Test [8] has as its system OR2M7 clone 1377.
The subject of test [9] is OR2S2 clone 1462.
Test [10] relates to OR2T1 P132L clone 1474.
The test system of test [11] is OR2T10 clone 1047.
In test [12] the test system is OR2T11 C119R/Q309R clone 1050.
For test [13], the system named is OR2T11 C119R/Q309R clone 1051.
The test system of test [14] is OR2T2 clone 1561.
Test [15] relates to OR2T29 clone 1545.
Test [16] relates to OR2T3 clone 1397.
In test [17] the test system is OR2T34 clone 1049.
For test [18], the system named is OR2T35 V31I clone 1562.
For test [19], the system named is OR2T4 clone 1347.
Test [20] deals with OR2T5 clone 1033.

Values joined by “and” are separate entries in the source; they are usually repeats but may differ in a detail not shown here. Equal entries are not always repeated. The list shows a part of the results. Each value is one well over the wells without odorant, computed here; the data are noisy.

Turning to `CC(C)=CCCC(C)=CC=O` [citral], the odorant receptor activation amounted to 1.55 in test [1]; 1.01 in test [2]; 1.03 in test [3]; 1.11 in test [4]; 1.04 in [5]; 0.28 in test [6]. Moreover, the odorant receptor activation in test [7] was 0.278; in test [8], 0.288; in test [9], 0.853; in [10], 1.09; in test [11] it was 1.09; in test [12], 1.26. In addition, the odorant receptor activation came out at 1.44 in [13]; 1.07 in [14]; 0.857 in test [15]; 0.349 in test [16]; 0.939 in test [17]; 1.05 in test [18]. Besides, the odorant receptor activation in test [19] turned out to be 0.991; in test [20], 0.952.
Consider `CCCC(=O)O` [butyric acid], for which the odorant receptor activation was determined as 1.63 in test [1]; 1 in test [2]; 1.27 in test [3]; 1.22 in test [4]; 1.08 in test [5]; 0.204 in test [6]. Further, the odorant receptor activation in [7] was found to be 0.226; in test [8], 0.261; in test [9], 0.764; in [10], 1.21; in [11], 1.11; in test [12], 1.19. Also, the odorant receptor activation in test [13] was 1.17; in [14] it was 0.708; in test [15] it was 0.915; in test [16], 0.274; in test [17], 1.03; in test [18] it was 1.18. The figures for the odorant receptor activation in test [19] and in test [20] were 0.823 and 0.951, respectively.
Turning to `C=CCc1ccc(O)c(OC)c1` [eugenol], the odorant receptor activation in [1] is 2.08 and 1.25 and 1.02; in [2], 1.65 and 0.993 and 1.44; in [3], 1.97 and 1.19; in [4], 1.17 and 1.31; in [5], 2.46 and 1.44; in test [6], 1.18 and 1.7. In addition, the odorant receptor activation is 1.44 and 1.11 in test [7]; 0.965 and 1.58 in [8]; 1.07 and 1.12 and 1.29 in test [9]; 2.77 and 1.5 and 1.38 in [10]; 2.83 and 1.57 in test [11]; 1.68 and 1.54 in test [12]. The odorant receptor activation in test [13] is 1.06 and 1.25; in test [14], 1.19; in test [15], 1.54; in test [16], 1.21 and 1.4; in test [17], 1.99 and 1.41; in test [18] it was 1.23. Moreover, the odorant receptor activation was 2.69 and 1.6 in test [19]; 0.998 and 1.78 in test [20].
As to `CC12CCC(CC1)C(C)(C)O2` [cineole], the odorant receptor activation in test [1] amounted to 1.29; in test [2] it was 0.938; in test [3] it was 1.36; in test [4] it was 0.679; in test [5], 0.793; in [6], 0.204. Moreover, the odorant receptor activation in [7] was found to be 0.2; in test [8], 0.217; in test [9], 1.2; in test [10], 0.982; in test [11] it was 0.983; in test [12] it was 0.822. Moreover, the odorant receptor activation came out at 0.997 in [13]; 0.823 in test [14]; 0.658 in test [15]; 0.21 in test [16]; 0.806 in test [17]; 0.98 in test [18]. The odorant receptor activation was 0.877 in [19] and 0.809 in test [20].
Consider `CC1CCC(C(C)C)C(O)C1` (single isomer, unassigned; (+)) [(+)-menthol], for which the odorant receptor activation is 1.39 in test [1]; 0.847 in [2]; 2.35 in test [3]; 3.69 in test [4]; 1.32 in test [5]; 0.768 in [6]. Also, the odorant receptor activation in [7] is 0.6; in test [8] it was 0.75; in test [9], 1.03; in test [10], 1.29; in [11], 3.32; in test [12], 3.76. Besides, the odorant receptor activation in test [13] is 3.2; in test [14], 0.85; in test [15], 1.19; in [16], 0.854; in test [17] it was 3.39; in test [18] it was 1.36. In addition, the odorant receptor activation was 1.15 in test [19] and 2.7 in test [20].
`CC(=O)OCC=C(C)CCC=C(C)C` [geranyl acetate]: the odorant receptor activation in test [1] is 0.981 and 1.25; in [2] it was 0.94 and 1.21; in test [3], 1.38; in test [4], 1.31; in test [5] it was 1.78; in [6], 1.34. The odorant receptor activation in test [7] is 0.873; in test [8], 1.38; in [9], 1.03 and 1.67; in [10], 0.976 and 1.96; in test [11], 1.38; in test [12] it was 1.07. The odorant receptor activation in [13] is 1.22; in test [14], 0.825; in test [15], 1.14 and 2.46; in test [16] it was 1.11; in [17], 2.63; in test [18], 1.72. Besides, the odorant receptor activation in test [19] was 0.851 and 1.04; in test [20], 1.13.
For `CCCCCCCC=CC=O` [2-decenal], the odorant receptor activation in [1] came to 1.73; in test [2], 1.13; in test [3] it was 2.02; in test [4], 3.28; in test [5], 0.784; in [6], 1.99. The odorant receptor activation in [7] was 0.906; in test [8], 1.16; in [9] it was 1.32; in [10], 1.34; in [11] it was 5.26; in [12] it was 6.28. Also, the odorant receptor activation is 6.84 in test [13]; 0.852 in test [14]; 1.03 in [15]; 0.95 in test [16]; 6.48 in [17]; 0.73 in test [18]. Moreover, the results for the odorant receptor activation in test [19] and in test [20] were 1.45 and 12.7, respectively.
Consider `C=CCc1ccc(OC(C)=O)c(OC)c1` [eugenol acetate], for which the odorant receptor activation in test [1] is 1.61; in [2] it was 1.46; in test [3], 1.51; in [4], 1.86; in test [5], 1.8; in test [6], 1.8. For the same compound, the odorant receptor activation in test [7] was 1.76; in test [8] it was 1.61; in test [9] it was 1.5; in [10], 2.26; in test [11], 1.96; in test [12], 1.72. Besides, the odorant receptor activation stood at 1.94 in [13]; 1.54 in test [14]; 2.12 in test [15]; 1.59 in test [16]; 1.59 in [17]; 1.4 in [18]. Moreover, the odorant receptor activation in test [19] is 1.88; in [20] it was 1.65.
Take `CCCCCCCCC=O` [nonyl aldehyde]: the odorant receptor activation came out at 1.08 in test [1]; 0.966 in test [2]; 1.16 in test [3]; 1.17 in [4]; 0.913 in [5]; 0.898 in test [6]. Moreover, the odorant receptor activation in test [7] amounted to 0.834; in [8], 0.958; in test [9] it was 0.963; in test [10] it was 1.19; in test [11] it was 0.972; in [12], 0.814. Further, the odorant receptor activation is 1.13 in [13]; 0.672 in test [14]; 1.31 in [15]; 0.81 in [16]; 0.919 in test [17]; 1.09 in test [18]. Further, the odorant receptor activation in [19] was determined as 0.9; in test [20], 1.02.
As to `CCCCCCCOC(C)=O` [heptyl acetate], the odorant receptor activation in test [1] is 0.713 and 1.1; in test [2], 1.08 and 1.16; in [3] it was 0.769; in test [4], 0.77; in test [5], 1.04; in [6], 1.17. The odorant receptor activation in test [7] is 0.838; in [8] it was 1.21; in [9] it was 0.939 and 1.59; in [10], 1.02 and 1.51; in [11], 0.82; in test [12], 0.696. The odorant receptor activation in test [13] is 1.2; in test [14], 0.894; in test [15], 1.03 and 1.7; in test [16], 1.09; in [17], 1.76; in [18] it was 0.841. In addition, the odorant receptor activation was 0.834 and 1 in [19]; 0.798 in test [20].
Regarding `C=CC(C)(O)CCC=C(C)C` (stereo not given) [linalool], the odorant receptor activation in [1] was 1.35; in test [2], 0.768; in test [3] it was 1.3; in test [4], 1.62; in [5] it was 1.02; in test [6], 0.96. In addition, the odorant receptor activation in test [7] turned out to be 1.06; in test [8] it was 0.872; in test [9], 0.85; in test [10], 1.18; in [11], 1.19; in [12] it was 0.997. Besides, the odorant receptor activation in [13] stood at 1.48; in [14], 1.02; in test [15], 1.21; in test [16], 0.925; in [17], 0.966; in test [18], 0.192. Also, the odorant receptor activation in test [19] was 0.687; in [20] it was 1.18.
Regarding `CC/C=C\CCO` [cis-3-hexen-1-ol], the odorant receptor activation was 1.41 in test [1]; 0.904 in test [2]; 1.24 in test [3]; 0.952 in test [4]; 1.09 in test [5]; 0.219 in test [6]. For the same compound, the odorant receptor activation in test [7] came out at 0.246; in test [8], 0.247; in [9], 0.827; in test [10], 0.965; in test [11] it was 0.999; in [12], 1.15. Besides, the odorant receptor activation amounted to 1.08 in test [13]; 0.847 in [14]; 0.935 in [15]; 0.281 in test [16]; 0.771 in [17]; 1.07 in [18]. Further, the odorant receptor activation in test [19] amounted to 1.15; in test [20], 0.775.
Regarding `CC12CCC(C1)C(C)(C)C2=O` (stereo not given) [fenchone], the odorant receptor activation came out at 0.923 in test [1]; 1.38 in test [2]; 0.732 in [3]; 0.816 in test [4]; 1.1 in [5]; 1.06 in [6]. The odorant receptor activation in test [7] came to 0.864; in test [8], 0.77; in test [9], 1.29; in test [10], 1.4; in test [11] it was 0.975; in [12], 1.31. Moreover, the odorant receptor activation in [13] was determined as 1.11; in test [14] it was 0.845; in test [15], 1.32; in test [16], 0.89; in test [17] it was 1.01; in [18], 0.885. Also, the results for the odorant receptor activation in test [19] and in test [20] were 1.14 and 0.907, respectively.
